Library screen at single concentrations

The chains behind the UniProt entries cited, without tags or fusion partners. Residues count along the entry.
UniProt Q4DA54, 1-478: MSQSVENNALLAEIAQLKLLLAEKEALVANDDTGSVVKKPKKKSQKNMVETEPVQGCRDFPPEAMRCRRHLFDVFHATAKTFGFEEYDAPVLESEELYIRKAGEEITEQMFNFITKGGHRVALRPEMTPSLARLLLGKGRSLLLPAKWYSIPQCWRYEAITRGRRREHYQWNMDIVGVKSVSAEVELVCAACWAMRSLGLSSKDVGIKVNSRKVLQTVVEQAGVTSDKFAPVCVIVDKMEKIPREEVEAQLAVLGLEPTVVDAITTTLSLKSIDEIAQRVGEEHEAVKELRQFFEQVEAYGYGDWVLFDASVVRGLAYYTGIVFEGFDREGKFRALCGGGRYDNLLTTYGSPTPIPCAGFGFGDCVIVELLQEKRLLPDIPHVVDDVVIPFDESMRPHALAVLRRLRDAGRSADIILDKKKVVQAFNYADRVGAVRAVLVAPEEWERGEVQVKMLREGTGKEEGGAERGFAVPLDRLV
UniProt Q8IDJ8, 1-583: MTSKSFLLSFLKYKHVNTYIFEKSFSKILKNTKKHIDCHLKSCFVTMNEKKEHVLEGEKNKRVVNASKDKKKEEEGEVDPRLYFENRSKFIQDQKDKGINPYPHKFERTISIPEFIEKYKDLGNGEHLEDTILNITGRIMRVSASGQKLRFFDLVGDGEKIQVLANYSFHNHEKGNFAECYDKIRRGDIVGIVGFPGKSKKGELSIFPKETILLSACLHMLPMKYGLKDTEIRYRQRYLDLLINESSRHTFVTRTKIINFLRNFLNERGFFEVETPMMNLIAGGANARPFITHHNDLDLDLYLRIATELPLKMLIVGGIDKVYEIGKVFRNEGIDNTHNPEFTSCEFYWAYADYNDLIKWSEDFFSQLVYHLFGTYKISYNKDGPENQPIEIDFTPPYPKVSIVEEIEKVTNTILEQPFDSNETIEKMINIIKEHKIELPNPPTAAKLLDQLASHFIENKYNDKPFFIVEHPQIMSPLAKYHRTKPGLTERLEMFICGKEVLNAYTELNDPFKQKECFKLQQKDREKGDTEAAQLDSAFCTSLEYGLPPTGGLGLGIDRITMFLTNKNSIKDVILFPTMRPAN

Source: ChEMBL document CHEMBL3988442, “University of Dundee, Small-Polar-MMV Screening Library” (2021).

A: 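Enzyme assay of histidyl-tRNA synthetase; the read-out is not stated. Target: Histidine-tRNA ligase, Trypanosoma cruzi CL Brener (UniProt Q4DA54). Compounds at 30 µM. The record gives no direction; compounds that gave an IC50 in retests scored well above the rest, so higher reads as stronger inhibition. Size under these conditions: about 69,000 compounds, about 31 of them at 50% or above in at least one test.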
B: 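Enzyme assay of the cytosolic lysyl-tRNA synthetase in 384-well plates, read by luminescence. Target: Lysine-tRNA ligase, Plasmodium falciparum 3D7 (UniProt Q8IDJ8). Compounds at 30 µM. Direction is inferred from only a few compounds that gave an IC50; most scored high, so higher reads as stronger inhibition. Of about 69,000 compounds tested this way, about 49 (0.071%) reached 50% or more in at least one test.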

The filed quantity is “Percent Effect” (%). How 0% and 100% were set is not recorded. Most values in the screen are low, and negative values occur. The compounds are a random part of those screened.

- c1coc(-c2nnc(CN(Cc3cccs3)CC3CCCO3)o2)c1 (stereo not given) : A: 3.333%; B: 0.8398%
- CN1CCOC[C@H]1c1nc(-c2cccnc2)c[nH]1 : A: 7.921%; B: 5.614%
- COc1ccc(Nc2nc(N)c(C(C)=O)s2)cc1OC : A: 6.098%; B: 9.599%
- Cc1ccc(S(C)(=O)=O)cc1C(=O)NS(=O)(=O)c1ccc(Cl)cc1 : A: 6.349%; B: 4.644%
- Cc1n[nH]c(C)c1CCC(=O)N(C)Cc1cn[nH]c1-c1ccc(F)cc1 : A: 4.124%; B: -0.03565%
- CC(C)Nc1nc(O)cc(C2CC(=O)N(C3CCCCC3)C2)n1 (stereo not given) : A: 8.046%; B: 2.022%
- O=C(NCc1cn2c(n1)CN(Cc1ccccn1)CC2)C1CCC1 : A: 2.941%; B: 9.138%
- O=C(CNC(=O)c1ccoc1)NCCOc1ccc2c(c1)CCC2 : A: 0%; B: 1.107%
- CCn1nccc1CNC(=O)C1CCC1 : A: 0%; B: 0.2512%
- O=C(C[C@H]1[C@H]2CN(C(=O)Cc3ccccn3)C[C@@H]12)Nc1cccnc1 : A: 3.448%; B: 3.719%
- Cc1cccc(CN2CCN(Cc3ccccc3)CC(O)C2)n1 (stereo not given) : A: 5.833%; B: 1.758%
- Cc1nnc(SCC(=O)N2CCc3[nH]nc(C4CCC4)c3C2)o1 : A: -2.186%; B: 2.491%
- CC1CCN(c2ncc3c(n2)CN(C2CCS(=O)(=O)C2)C3=O)CC1 (stereo not given) : A: -3.509%; B: -5.174%
- Cc1ccc(C(=O)Nc2nc(C)no2)cc1 : A: 7.514%; B: 1.296%
- Cc1cnc(NCC(C)(C)N2CCN(C)CC2)nc1 : A: 4.819%; B: -1.769%
- Cc1ccccc1CC(=O)N1CCc2c(ncnc2N2CCOCC2)C1 : A: -2.116%; B: -4.809%
- COCC1CN(C(=O)c2ccoc2)Cc2cnn(CC3CCOCC3)c21 (stereo not given) : A: -1.111%; B: 3.639%
- Cc1noc(CN2CCN(CCS(C)(=O)=O)CC2)n1 : A: 1.163%; B: 7.82%
- Cc1ncncc1C(=O)N1CCCC(Cc2nccs2)C1 (stereo not given) : A: 5.65%; B: 4.828%
- CN(Cc1cc2n(n1)CCN(C(=O)[C@H]1CCCO1)C2)Cc1nccs1 : A: 8.458%; B: -1.188%
- O=C(CCn1ccc(=O)[nH]c1=O)N1CCC(Oc2ncccc2Cl)CC1 : A: 1.031%; B: 2.637%
- N#CC1(C(=O)NCc2ccc(F)cc2)CCCC1 : A: 3.509%; B: 2.662%
- Cc1cc(C(=O)N2CCCC2)ccc1NCC(=O)N1CCOCC1 : A: -5.714%; B: 3.485%
- Cc1cccc(OC2CCN(C(=O)c3ccc4ncsc4c3)CC2)n1 : A: 8.485%; B: 5.753%
- O=C(c1ccoc1)N1CC[C@@H]2O[C@@H](COCCN3CCCC3)CC[C@@H]21 : A: 12.61%; B: 2.17%
- O=C(CCCOc1cccc(F)c1)N1CCCC(n2cncn2)C1 (stereo not given) : A: 3.704%; B: -0.1876%
- CC(NC(=O)c1ccc(=O)n(C)c1)c1ccc(OCC2CC2)c(F)c1 (stereo not given) : A: 4.167%; B: 5.716%
- COc1ccccc1OCCC(=O)N1CCCC1Cn1cccn1 (stereo not given) : A: 5.202%; B: 1.195%
- Cc1cc(CN(C)C(=O)C2CCCN(C(=O)c3cccs3)C2)no1 (stereo not given) : A: 1.674%; B: 2.386%
- Fc1ccccc1-c1nnn(CCCc2nn[nH]n2)n1 : A: 4.386%; B: 2.709%
- CC(C)(C)C(O)CN1CCN(CC(=O)NC(C2CC2)C2CC2)CC1 (stereo not given) : A: -2.521%; B: 5.031%
- O=c1cc(CN2CCCC2)nc2n1CCCN(CC1CC1)C2 : A: 11.56%; B: -2.029%
- CCn1cc(CN2CCCN(C(=O)CCc3cccs3)CC2)cn1 : A: 4.598%; B: 1.731%
- CC(C)C1CN(S(=O)(=O)C2CC2)CCCN1Cc1ccc(F)cc1 (stereo not given) : A: 6.404%; B: 2.846%
- CCOC(=O)c1nc(COc2ccc(CC(N)=O)cc2)no1 : A: 9.901%; B: 1.922%
- Cc1cccc(C)c1NCc1noc(C2CC2)n1 : A: 5.419%; B: 2.089%
- Cn1ccnc1-c1nccn1C[C@@H]1CCCN2CCCC[C@H]12 : A: 10.99%; B: 1.029%

Some entries from above, unchanged:

| SMILES | A | B |
|---|---|---|
| `CC(NC(=O)c1ccc(=O)n(C)c1)c1ccc(OCC2CC2)c(F)c1` (stereo not given) | 4.167% | 5.716% |
| `c1coc(-c2nnc(CN(Cc3cccs3)CC3CCCO3)o2)c1` (stereo not given) | 3.333% | 0.8398% |